Measured values as given in article PMC11949838, “FUT10 and FUT11 are protein O-fucosyltransferases that modify protein EMI domains” (Nature Chemical Biology, 2025).

By UniProt entry, the sequences of proteins in these tests, tags left out. Where a name states a change or a piece, a line headed by the entry shows the natural chain unless it says otherwise.
UniProt Q6P4F1: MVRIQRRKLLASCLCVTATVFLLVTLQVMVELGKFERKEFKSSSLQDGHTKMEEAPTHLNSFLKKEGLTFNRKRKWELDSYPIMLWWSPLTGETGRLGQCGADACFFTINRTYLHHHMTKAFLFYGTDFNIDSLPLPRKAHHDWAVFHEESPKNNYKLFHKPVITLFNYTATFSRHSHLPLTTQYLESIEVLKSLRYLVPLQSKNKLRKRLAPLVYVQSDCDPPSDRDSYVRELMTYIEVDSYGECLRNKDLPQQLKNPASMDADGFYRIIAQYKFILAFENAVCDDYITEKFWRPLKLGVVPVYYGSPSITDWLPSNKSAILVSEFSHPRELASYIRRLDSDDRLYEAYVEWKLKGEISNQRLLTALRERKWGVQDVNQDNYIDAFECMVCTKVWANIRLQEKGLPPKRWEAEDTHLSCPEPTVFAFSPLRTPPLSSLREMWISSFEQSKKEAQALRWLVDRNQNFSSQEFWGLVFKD
UniProt Q495W5: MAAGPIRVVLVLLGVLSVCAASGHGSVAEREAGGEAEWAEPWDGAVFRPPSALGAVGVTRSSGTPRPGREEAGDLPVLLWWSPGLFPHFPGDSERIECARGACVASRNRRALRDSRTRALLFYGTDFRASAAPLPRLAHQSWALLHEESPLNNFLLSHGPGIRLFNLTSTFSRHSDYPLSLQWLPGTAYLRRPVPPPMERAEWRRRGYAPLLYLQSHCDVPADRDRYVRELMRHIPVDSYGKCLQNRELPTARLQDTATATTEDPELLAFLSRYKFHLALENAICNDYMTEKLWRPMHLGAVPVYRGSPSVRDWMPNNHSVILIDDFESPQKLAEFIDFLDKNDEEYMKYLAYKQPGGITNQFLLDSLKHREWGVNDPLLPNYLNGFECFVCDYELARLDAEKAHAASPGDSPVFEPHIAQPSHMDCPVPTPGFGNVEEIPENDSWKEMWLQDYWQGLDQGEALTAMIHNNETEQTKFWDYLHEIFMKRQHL

Legend:
[1] = molecular target: T1, human MMRN1 N-terminal EMI-Myc-His6 T216A mutant (human) (UniProt Q13201); assay: co-IP; HEK293 cells co-transfected with EMI-Myc and FUT plasmids, 24 h; lysis in 1% Igepal CA-630, 50 mM Tris-HCl pH 7.4, 150 mM NaCl, 5% glycerol, 1 mM MgCl2; anti-c-Myc (9E10) magnetic beads, 4 °C, 2 h; eluted proteins digested and quantified by LC-MS/MS (label-free quantification, MaxQuant), n = 3
T1 sequence: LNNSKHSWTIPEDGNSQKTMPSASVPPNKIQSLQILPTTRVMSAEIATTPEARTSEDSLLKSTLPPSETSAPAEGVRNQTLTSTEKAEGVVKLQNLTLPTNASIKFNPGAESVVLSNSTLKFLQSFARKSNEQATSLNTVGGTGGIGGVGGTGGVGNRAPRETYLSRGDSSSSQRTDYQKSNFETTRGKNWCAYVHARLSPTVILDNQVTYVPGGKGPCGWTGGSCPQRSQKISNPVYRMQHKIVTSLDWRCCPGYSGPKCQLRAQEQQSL

[2] = molecular target: T2, human MMRN1 N-terminal EMI-Myc-His6 (first 290 amino acids of Multimerin-1, wild type) (human) (UniProt Q13201); assay: as above
T2 sequence: T1 sequence with A197T

binding [1] | binding [2] | Substance
binds | binds | GFP–FUT10 (human FUT10 lacking the transmembrane domain, from pGEn2-GFP-hFUT10) (from UniProt Q6P4F1) (enzyme)
binds | binds | GFP–FUT11 (human FUT11 lacking the transmembrane domain, from pGEn2-GFP-hFUT11) (from UniProt Q495W5) (enzyme)

Residue numbers refer to the chain shown, from its start. These are yes or no findings as the source states them, for the method shown. In cells and extracts the contact can be indirect. A result given as binding can be weak or reduced; the word gives no strength. Where a sequence is shown, tags or fusion partners need not be part of it.
